Test results from article PMC8724010.
These are yes or no findings as the source states them, for the method shown. In cells and extracts the contact can be indirect. Some entries that bind do so weakly or less than the wild type. One block for each molecule: values may come before it.

Sequences of proteins named here, by UniProt entry; tags and fusion partners are left off.
UniProt P04792: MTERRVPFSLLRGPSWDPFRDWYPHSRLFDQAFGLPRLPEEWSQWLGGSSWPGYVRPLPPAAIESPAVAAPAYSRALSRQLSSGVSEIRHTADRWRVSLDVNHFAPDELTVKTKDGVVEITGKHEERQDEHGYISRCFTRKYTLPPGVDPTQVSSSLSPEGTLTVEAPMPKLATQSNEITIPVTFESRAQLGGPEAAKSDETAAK

Tests used:
[1] = molecular target: T1, Menin (human (endogenous in LNCaP, PNT1A, PC-3)) (UniProt O00255); assay: co-IP; LNCaP-Mock and LNCaP-HSP27 cell lysates; Menin immunoprecipitated with mouse anti-Menin, mouse IgG as control; blotted with anti-Menin or anti-HSP27
T1 sequence: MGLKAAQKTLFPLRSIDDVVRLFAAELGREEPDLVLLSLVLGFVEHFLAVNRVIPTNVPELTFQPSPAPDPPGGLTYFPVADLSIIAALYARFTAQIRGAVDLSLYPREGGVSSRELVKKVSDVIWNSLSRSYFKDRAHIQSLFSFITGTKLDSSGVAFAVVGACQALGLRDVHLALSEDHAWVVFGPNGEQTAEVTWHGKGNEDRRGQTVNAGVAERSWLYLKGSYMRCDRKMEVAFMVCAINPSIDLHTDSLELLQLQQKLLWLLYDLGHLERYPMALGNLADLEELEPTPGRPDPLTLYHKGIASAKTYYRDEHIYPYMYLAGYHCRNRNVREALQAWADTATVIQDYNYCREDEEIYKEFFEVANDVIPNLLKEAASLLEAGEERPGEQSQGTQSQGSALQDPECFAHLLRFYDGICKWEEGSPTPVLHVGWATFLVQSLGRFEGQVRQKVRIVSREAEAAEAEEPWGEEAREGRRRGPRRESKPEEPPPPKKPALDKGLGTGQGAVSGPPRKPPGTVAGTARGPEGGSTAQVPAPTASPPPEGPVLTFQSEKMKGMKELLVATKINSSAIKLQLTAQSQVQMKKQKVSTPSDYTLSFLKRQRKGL

[2] = molecular target: T1, Menin (human (endogenous in LNCaP, PNT1A, PC-3)); assay: co-IP; PNT1A, LNCaP and PC3 cell lysates; Menin immunoprecipitated with anti-Menin, IgG as control; blotted with anti-Menin, anti-SNW1 or anti-ERH

binding [1]: binds
Molecule: heat shock protein 27 (from UniProt P04792 1-205)

binding [2]: binds
B1: SNW Domain Containing 1 (protein, UniProt Q13573 1-536)
chain: MALTSFLPAPTQLSQDQLEAEEKARSQRSRQTSLVSSRREPPPYGYRKGWIPRLLEDFGDGGAFPEIHVAQYPLDMGRKKKMSNALAIQVDSEGKIKYDAIARQGQSKDKVIYSKYTDLVPKEVMNADDPDLQRPDEEAIKEITEKTRVALEKSVSQKVAAAMPVRAADKLAPAQYIRYTPSQQGVAFNSGAKQRVIRMVEMQKDPMEPPRFKINKKIPRGPPSPPAPVMHSPSRKMTVKEQQEWKIPPCISNWKNAKGYTIPLDKRLAADGRGLQTVHINENFAKLAEALYIADRKAREAVEMRAQVERKMAQKEKEKHEEKLREMAQKARERRAGIKTHVEKEDGEARERDEIRHDRRKERQHDRNLSRAAPDKRSKLQRNENRDISEVIALGVPNPRTSNEVQYDQRLFNQSKGMDSGFAGGEDEIYNVYDQAWRGGKDMAQSIYRPSKNLDKDMYGDDLEARIKTNRFVPDKEFSGSDRRQRGREGPVQFEEDPFGLDKFLEEAKQHGGSKRPSDSSRPKEHEHEGKKRRKE
